In the supplement of paper PMC6411743:
± gives the standard deviation of the averaged measurements. The list shows a part of the results.

The chains behind the UniProt entries cited, without tags or fusion partners. Where a name states a change or a piece, a line headed by the entry shows the natural chain unless it says otherwise.
UniProt P40763, whole entry: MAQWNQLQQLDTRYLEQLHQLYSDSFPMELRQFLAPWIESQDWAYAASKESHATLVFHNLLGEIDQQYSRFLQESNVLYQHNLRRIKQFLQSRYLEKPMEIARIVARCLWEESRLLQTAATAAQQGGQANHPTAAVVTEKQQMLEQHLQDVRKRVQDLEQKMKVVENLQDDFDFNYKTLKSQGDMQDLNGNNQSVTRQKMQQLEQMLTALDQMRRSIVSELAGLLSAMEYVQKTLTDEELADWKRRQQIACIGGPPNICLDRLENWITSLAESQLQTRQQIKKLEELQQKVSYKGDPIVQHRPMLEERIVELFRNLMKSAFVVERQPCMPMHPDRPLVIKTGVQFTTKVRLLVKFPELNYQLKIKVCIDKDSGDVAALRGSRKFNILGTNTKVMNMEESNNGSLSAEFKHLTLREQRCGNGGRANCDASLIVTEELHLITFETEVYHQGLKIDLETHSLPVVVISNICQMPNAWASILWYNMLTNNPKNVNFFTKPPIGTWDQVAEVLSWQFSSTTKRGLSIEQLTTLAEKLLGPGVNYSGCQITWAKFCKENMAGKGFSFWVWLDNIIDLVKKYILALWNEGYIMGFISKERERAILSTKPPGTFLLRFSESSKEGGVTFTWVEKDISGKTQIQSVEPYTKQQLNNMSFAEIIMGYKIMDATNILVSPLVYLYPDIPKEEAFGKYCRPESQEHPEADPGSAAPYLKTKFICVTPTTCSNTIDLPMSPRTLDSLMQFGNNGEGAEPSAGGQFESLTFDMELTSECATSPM
UniProt Q96AX1: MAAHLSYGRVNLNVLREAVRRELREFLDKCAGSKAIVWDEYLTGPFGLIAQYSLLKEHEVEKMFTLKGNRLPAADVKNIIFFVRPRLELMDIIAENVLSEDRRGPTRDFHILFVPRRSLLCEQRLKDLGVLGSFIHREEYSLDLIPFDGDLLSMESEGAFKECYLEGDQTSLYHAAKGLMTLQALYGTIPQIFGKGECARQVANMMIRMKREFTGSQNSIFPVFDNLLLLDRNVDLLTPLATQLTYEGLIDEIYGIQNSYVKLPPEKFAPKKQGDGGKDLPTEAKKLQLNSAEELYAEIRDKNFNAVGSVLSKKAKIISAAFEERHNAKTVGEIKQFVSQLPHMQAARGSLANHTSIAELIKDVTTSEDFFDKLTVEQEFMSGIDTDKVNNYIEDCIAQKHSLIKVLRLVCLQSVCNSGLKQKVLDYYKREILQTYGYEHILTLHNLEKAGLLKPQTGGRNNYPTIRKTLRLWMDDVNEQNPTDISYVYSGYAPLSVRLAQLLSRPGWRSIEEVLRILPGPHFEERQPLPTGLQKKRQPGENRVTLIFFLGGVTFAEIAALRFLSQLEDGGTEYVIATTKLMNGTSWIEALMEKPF
UniProt Q9NPR2: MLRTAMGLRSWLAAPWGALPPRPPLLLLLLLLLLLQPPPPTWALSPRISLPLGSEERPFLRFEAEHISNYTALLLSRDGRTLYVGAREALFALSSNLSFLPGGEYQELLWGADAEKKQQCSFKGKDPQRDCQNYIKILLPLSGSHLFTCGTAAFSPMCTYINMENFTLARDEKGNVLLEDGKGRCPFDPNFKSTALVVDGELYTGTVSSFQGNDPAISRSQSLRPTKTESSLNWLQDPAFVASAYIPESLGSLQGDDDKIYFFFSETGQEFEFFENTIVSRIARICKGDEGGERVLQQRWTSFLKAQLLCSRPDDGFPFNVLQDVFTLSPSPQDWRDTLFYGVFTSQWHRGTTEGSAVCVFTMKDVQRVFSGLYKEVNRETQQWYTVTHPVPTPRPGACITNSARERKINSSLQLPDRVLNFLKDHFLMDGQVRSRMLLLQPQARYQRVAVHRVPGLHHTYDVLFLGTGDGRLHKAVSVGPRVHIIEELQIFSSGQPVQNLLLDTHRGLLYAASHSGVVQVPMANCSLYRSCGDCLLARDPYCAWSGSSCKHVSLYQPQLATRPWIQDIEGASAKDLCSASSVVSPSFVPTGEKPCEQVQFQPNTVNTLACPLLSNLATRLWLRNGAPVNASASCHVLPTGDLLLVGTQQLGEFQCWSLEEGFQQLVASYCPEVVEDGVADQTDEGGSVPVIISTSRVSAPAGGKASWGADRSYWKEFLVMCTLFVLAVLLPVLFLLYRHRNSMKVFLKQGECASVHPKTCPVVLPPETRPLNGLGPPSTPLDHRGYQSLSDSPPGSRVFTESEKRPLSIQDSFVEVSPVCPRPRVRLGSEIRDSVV
UniProt O43169: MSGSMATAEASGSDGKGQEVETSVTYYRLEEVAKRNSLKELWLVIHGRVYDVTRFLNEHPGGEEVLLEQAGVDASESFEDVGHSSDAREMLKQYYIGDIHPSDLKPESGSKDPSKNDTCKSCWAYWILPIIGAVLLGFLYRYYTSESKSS
UniProt Q8WVC6: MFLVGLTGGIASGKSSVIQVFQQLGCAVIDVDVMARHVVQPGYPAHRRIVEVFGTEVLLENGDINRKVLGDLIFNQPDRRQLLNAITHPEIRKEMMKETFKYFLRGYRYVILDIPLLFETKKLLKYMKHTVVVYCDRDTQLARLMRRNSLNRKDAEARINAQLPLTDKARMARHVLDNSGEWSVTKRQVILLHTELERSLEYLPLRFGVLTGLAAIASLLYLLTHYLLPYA
UniProt Q15831: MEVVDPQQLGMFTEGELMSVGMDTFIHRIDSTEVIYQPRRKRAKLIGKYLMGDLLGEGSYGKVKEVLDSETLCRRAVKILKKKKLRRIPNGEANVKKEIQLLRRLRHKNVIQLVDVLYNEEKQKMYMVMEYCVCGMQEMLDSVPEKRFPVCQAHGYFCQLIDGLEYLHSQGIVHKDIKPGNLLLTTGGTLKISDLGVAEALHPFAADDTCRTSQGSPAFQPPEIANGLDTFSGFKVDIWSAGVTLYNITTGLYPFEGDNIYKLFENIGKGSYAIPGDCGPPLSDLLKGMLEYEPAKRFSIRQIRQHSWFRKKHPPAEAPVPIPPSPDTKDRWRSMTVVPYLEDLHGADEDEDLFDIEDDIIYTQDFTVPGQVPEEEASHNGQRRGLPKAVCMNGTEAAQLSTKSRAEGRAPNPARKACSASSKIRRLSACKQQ
UniProt Q9BVL2: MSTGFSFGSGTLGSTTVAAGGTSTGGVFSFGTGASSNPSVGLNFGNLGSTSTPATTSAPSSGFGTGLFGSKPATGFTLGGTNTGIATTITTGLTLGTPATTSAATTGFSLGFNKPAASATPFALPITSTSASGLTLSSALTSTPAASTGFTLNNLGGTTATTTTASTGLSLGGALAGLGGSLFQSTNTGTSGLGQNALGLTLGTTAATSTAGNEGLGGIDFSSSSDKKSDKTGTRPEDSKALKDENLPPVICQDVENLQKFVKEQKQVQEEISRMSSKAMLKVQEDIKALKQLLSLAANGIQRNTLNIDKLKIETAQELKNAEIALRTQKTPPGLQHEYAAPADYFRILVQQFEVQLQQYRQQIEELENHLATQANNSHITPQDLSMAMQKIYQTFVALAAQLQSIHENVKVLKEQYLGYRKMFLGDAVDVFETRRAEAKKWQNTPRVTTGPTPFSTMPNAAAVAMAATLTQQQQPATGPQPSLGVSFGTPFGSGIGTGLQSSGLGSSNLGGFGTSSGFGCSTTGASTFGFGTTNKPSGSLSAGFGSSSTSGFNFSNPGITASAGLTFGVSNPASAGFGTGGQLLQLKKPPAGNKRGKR
UniProt O95067, whole entry, looked up: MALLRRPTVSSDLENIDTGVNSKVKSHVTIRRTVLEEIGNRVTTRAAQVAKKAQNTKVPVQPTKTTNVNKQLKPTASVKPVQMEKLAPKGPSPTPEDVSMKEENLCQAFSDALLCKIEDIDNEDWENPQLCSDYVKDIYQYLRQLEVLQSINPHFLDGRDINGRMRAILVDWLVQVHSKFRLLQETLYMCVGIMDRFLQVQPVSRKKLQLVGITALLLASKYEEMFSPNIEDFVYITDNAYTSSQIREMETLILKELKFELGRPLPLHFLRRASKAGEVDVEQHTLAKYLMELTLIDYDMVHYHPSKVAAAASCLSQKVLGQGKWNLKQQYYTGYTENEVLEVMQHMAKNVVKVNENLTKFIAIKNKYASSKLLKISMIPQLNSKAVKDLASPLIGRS
UniProt P53041: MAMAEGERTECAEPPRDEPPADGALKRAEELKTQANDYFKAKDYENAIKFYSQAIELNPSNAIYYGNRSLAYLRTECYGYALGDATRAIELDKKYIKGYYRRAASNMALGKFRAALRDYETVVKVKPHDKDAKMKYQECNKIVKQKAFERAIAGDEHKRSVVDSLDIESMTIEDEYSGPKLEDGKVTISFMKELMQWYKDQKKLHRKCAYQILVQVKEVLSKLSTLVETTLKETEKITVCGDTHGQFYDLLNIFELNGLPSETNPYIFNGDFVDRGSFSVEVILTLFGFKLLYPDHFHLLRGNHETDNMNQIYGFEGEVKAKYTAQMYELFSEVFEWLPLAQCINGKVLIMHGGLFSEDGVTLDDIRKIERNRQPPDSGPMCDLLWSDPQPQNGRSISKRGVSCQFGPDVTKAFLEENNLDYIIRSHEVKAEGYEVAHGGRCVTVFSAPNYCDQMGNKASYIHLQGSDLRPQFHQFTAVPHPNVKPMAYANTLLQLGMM
UniProt Q9C0C9: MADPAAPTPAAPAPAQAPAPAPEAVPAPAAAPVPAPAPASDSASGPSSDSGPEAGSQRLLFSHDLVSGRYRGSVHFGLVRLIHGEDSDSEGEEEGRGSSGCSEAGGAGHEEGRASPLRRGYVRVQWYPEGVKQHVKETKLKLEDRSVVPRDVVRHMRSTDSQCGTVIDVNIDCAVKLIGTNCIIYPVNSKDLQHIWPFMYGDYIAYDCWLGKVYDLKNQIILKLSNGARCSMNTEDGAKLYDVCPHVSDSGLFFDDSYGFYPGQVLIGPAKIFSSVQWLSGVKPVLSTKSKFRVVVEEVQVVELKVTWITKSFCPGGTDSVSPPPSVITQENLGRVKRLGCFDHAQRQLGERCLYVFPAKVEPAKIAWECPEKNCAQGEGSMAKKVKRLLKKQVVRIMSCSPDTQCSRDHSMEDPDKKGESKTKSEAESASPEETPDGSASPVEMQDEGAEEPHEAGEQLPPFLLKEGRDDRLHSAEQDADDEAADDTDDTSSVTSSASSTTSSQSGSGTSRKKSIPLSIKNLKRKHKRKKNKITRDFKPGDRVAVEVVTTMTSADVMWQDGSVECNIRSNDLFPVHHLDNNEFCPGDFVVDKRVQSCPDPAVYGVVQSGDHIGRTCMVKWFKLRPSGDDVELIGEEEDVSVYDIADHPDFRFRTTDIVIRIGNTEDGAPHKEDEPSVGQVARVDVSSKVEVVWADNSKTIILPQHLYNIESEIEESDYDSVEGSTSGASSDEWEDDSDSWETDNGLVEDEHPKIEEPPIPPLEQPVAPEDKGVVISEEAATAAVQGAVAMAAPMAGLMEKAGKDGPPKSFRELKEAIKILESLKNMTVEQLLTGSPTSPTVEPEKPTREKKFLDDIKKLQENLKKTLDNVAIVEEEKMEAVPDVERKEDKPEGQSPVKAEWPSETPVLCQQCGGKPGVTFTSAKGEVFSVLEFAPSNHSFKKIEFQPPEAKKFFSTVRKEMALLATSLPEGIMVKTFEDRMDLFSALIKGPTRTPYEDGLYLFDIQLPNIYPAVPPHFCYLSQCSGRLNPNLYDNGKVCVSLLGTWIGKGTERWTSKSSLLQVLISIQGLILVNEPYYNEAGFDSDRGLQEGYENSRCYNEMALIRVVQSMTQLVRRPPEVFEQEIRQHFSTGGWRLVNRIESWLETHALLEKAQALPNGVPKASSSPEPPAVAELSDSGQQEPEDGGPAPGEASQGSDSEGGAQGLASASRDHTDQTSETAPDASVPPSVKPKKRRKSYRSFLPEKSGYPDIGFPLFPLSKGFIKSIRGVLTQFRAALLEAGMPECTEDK
UniProt O43716: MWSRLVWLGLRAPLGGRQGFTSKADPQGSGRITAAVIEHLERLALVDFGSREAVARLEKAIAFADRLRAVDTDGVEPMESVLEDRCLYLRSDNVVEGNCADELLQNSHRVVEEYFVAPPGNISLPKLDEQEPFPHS
UniProt Q14119: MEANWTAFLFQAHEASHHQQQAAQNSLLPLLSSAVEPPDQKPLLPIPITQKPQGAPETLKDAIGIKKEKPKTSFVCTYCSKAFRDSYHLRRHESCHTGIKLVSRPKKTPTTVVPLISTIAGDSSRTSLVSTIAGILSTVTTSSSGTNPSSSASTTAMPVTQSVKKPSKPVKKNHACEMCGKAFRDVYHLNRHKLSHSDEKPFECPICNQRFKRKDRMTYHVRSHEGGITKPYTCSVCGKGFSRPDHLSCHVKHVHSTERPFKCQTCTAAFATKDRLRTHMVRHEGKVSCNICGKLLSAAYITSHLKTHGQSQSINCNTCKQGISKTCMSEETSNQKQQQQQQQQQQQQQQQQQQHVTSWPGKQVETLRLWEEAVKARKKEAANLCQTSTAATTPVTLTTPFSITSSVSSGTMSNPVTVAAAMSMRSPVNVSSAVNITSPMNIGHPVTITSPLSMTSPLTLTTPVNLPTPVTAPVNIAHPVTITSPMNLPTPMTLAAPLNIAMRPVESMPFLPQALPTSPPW
UniProt P61960, whole entry: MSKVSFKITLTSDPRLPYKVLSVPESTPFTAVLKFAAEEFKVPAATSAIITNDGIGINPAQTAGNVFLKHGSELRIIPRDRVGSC

Compound: Nc1nc2c(ncn2[C@@H]2O[C@H](COP(=O)(O)OP(=O)(O)OP(=O)(O)O)[C@@H](O)[C@H]2O)c(=O)[nH]1 [guanosine triphosphate]
Assay: NP40-soluble protein abundance relative to vehicle (solubility fold change) (ratio); higher = more soluble protein in presence of GTP
Procedure, shortened: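 Data come from three independent experiments in which Dounce-homogenised Jurkat crude lysate was treated at eight concentrations from 0.1 to 10 mM. Treatment ran 10 min at room temperature and then 3 min at 37 °C, after which 0.8% NP40 and benzonase were added for 60 min at 4 °C before ultracentrifugation. The supernatant underwent TMT labelling and LC-MS/MS, and vsn-normalised intensities were expressed as fold change against the detergent-processed vehicle in each replicate.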

Row | Target | NP40-soluble protein abundance (concentration: 0.1mM) | NP40-soluble protein abundance (concentration: 0.5mM) | NP40-soluble protein abundance (concentration: 1mM) | NP40-soluble protein abundance (concentration: 2mM) | NP40-soluble protein abundance (concentration: 4mM) | NP40-soluble protein abundance (concentration: 6mM) | NP40-soluble protein abundance (concentration: 8mM) | NP40-soluble protein abundance (concentration: 10mM)
1 | H0Y9P9 and related entries (UniProt Q9H8P0) | 1.01 ± 0.037 | 1.06 ± 0.023 | 0.949 ± 0.074 | 1.02 ± 0.054 | 0.979 ± 0.023 | 0.94459 ± 0.00082 | 0.858 ± 0.018 | 0.897 ± 0.053
2 | G8JLH9 and related entries (UniProt P40763) | 1.02 ± 0.017 | 1.03 ± 0.047 | 0.965 ± 0.013 | 0.964 ± 0.02 | 0.953 ± 0.032 | 0.936 ± 0.024 | 0.94 ± 0.035 | 0.912 ± 0.068
3 | H3BMM5 and related entries (UniProt Q96AX1+H3BMM5) | 1.14 ± 0.2 | 1.15 ± 0.22 | 1.01 ± 0.16 | 1.1 ± 0.2 | 1.07 ± 0.16 | 0.998 ± 0.08 | 0.968 ± 0.14 | 0.907 ± 0.14
4 | J3KNP4 and related entries (UniProt Q9NPR2) | 1.02 ± 0.015 | 0.938 ± 0.038 | 0.98 ± 0.025 | 0.966 ± 0.058 | 0.935 ± 0.063 | 0.913 ± 0.034 | 0.982 ± 0.045 | 0.985 ± 0.035
5 | J3KN59 and related entries (UniProt Q12982) | 0.933 ± 0.058 | 0.952 ± 0.077 | 0.948 ± 0.097 | 0.858 ± 0.14 | 0.798 ± 0.12 | 0.824 ± 0.11 | 0.839 ± 0.038 | 0.776 ± 0.047
6 | G5EA30 and related entries (UniProt Q92879) | 0.962 ± 0.08 | 0.968 ± 0.038 | 0.972 ± 0.05 | 0.942 ± 0.062 | 0.925 ± 0.046 | 0.916 ± 0.067 | 0.942 ± 0.049 | 0.931 ± 0.08
7 | H3BUX2 and related entries (UniProt O43169) | 0.844 ± 0.024 | 0.822 ± 0.067 | 0.902 ± 0.039 | 0.852 ± 0.087 | 0.863 ± 0.11 | 0.889 ± 0.12 | 0.836 ± 0.096 | 0.857 ± 0.057
8 | K7ESP4 and related entries (UniProt Q8WVC6) | 1.1 ± 0.045 | 1.16 ± 0.11 | 1.03 ± 0.11 | 1.06 ± 0.048 | 1.03 ± 0.039 | 1.04 ± 0.11 | 0.968 ± 0.043 | 0.972 ± 0.034
9 | G5E9Z4 and related entries (UniProt Q8TCG2) | 0.987 ± 0.088 | 1.01 ± 0.052 | 0.958 ± 0.13 | 1.07 ± 0.089 | 1.11 ± 0.11 | 0.936 ± 0.097 | 1.13 ± 0.2 | 1.04 ± 0.25
10 | I3L2J0 (UniProt Q96RK0) | 0.965 ± 0.013 | 0.997 ± 0.073 | 1.02 ± 0.12 | 0.954 ± 0.11 | 0.927 ± 0.069 | 0.963 ± 0.087 | 0.976 ± 0.053 | 0.982 ± 0.048
11 | J3QTA2 and related entries (UniProt Q99933) | 1.02 ± 0.018 | 0.978 ± 0.032 | 0.97 ± 0.014 | 0.975 ± 0.044 | 0.951 ± 0.054 | 0.947 ± 0.023 | 0.979 ± 0.015 | 0.926 ± 0.052
12 | I3L254 and related entries (UniProt Q01664) | 0.934 ± 0.12 | 0.929 ± 0.098 | 1.06 ± 0.12 | 0.982 ± 0.045 | 0.915 ± 0.096 | 0.927 ± 0.055 | 0.894 ± 0.023 | 0.959 ± 0.13
13 | H7C2Q8 and related entries (UniProt Q99848) | 1.09 ± 0.13 | 1.1 ± 0.14 | 1.25 ± 0.17 | 1.17 ± 0.12 | 1.2 ± 0.2 | 1.16 ± 0.15 | 1.14 ± 0.16 | 1.42 ± 0.31
14 | I3L2J8 and related entries (UniProt Q9UPN4) | 1.2 ± 0.033 | 1.01 ± 0.09 | 1.23 ± 0.036 | 1.31 ± 0.02 | 1.36 ± 0.14 | 1.405 ± 0.0016 | 1.327 ± 0.0018 | 1.47 ± 0.23
15 | H7C561 and related entries (UniProt Q15637) | 0.897 ± 0.015 | 0.927 ± 0.046 | 1.01 ± 0.011 | 1 ± 0.07 | 0.982 ± 0.017 | 1 ± 0.055 | 1.02 ± 0.039 | 1.068 ± 0.0068
16 | K7EP59 and related entries (UniProt Q15831) | 1.071 ± 0.0048 | 1.1 ± 0.027 | 0.965 ± 0.024 | 0.946 ± 0.015 | 0.944 ± 0.092 | 0.932 ± 0.013 | 0.905 ± 0.12 | 0.914 ± 0.051
17 | J3QT87 and related entries (UniProt Q96SW2) | 1.07 ± 0.084 | 1.07 ± 0.1 | 0.979 ± 0.034 | 1.03 ± 0.12 | 1.05 ± 0.061 | 1.04 ± 0.1 | 0.946 ± 0.047 | 0.931 ± 0.039
18 | J3QLS3 and related entries (UniProt Q9Y2R9) | 1.07 ± 0.12 | 1.09 ± 0.14 | 1.27 ± 0.25 | 1.41 ± 0.23 | 1.48 ± 0.33 | 1.41 ± 0.29 | 1.32 ± 0.27 | 1.46 ± 0.36
19 | J3KR97 and related entries (UniProt Q9BTW9) | 1.07 ± 0.081 | 1.05 ± 0.092 | 0.945 ± 0.069 | 0.978 ± 0.14 | 0.964 ± 0.1 | 0.928 ± 0.081 | 0.888 ± 0.043 | 0.88 ± 0.068
20 | H7BYF2 and related entries (UniProt Q9BVL2) | 0.886 ± 0.013 | 0.843 ± 0.069 | 0.97 ± 0.046 | 0.948 ± 0.12 | 0.992 ± 0.12 | 1.03 ± 0.12 | 1.06 ± 0.14 | 1.19 ± 0.085
21 | H1UBN3 and related entries (UniProt O95067+H1UBN3) | 0.998 ± 0.059 | 0.952 ± 0.07 | 0.975 ± 0.024 | 1 ± 0.06 | 1.02 ± 0.025 | 1.02 ± 0.031 | 1.02 ± 0.013 | 1.05 ± 0.051
22 | H0YDU8 and related entries (UniProt P53041) | 0.974 ± 0.017 | 0.986 ± 0.016 | 0.932 ± 0.018 | 0.918 ± 0.023 | 0.905 ± 0.036 | 0.897 ± 0.023 | 0.888 ± 0.056 | 0.855 ± 0.051
23 | K7ES11 and related entries (UniProt Q9C0C9) | 0.984 ± 0.043 | 0.981 ± 0.037 | 0.965 ± 0.028 | 0.95 ± 0.029 | 0.944 ± 0.048 | 0.952 ± 0.038 | 0.959 ± 0.026 | 0.946 ± 0.029
24 | H0YIV9 and related entries (UniProt O43716+H0YIV9) | 0.985 ± 0.12 | 0.921 ± 0.033 | 1.12 ± 0.047 | 1.05 ± 0.023 | 1.03 ± 0.042 | 1.05 ± 0.03 | 1.03 ± 0.024 | 1.08 ± 0.022
25 | J3QSH4 and related entries (UniProt Q14119) | 1 ± 0.013 | 1.02 ± 0.069 | 1.02 ± 0.092 | 0.976 ± 0.14 | 0.93 ± 0.11 | 0.984 ± 0.14 | 1.01 ± 0.098 | 1.03 ± 0.13
26 | H0Y614 and related entries (UniProt P61960) | 1.04 ± 0.18 | 0.983 ± 0.17 | 1.08 ± 0.17 | 1.11 ± 0.11 | 1.17 ± 0.16 | 1.1 ± 0.13 | 1.15 ± 0.19 | 1.16 ± 0.16

Individual results from the entries so far:
In NP40-soluble protein abundance (concentration: 6mM), J3KR97 and related entries (UniProt Q9BTW9) is listed with 0.928 ± 0.081
In NP40-soluble protein abundance (concentration: 0.1mM), G8JLH9 and related entries (UniProt P40763) is listed with 1.02 ± 0.017
